PubChem BioAssay AID1508588 – Peter MacCallum Cancer Centre, 2020

- Aim: 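Knock-downs boosting vemurafenib effects on melanoma cell growth or lactate release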 (primary screen)
- System: human WM266.4 melanoma cells (BRAF V600 mutant)
- Reagent: siRNA pool against human genes, 40 nM
- Timing: 96 h from transfection to read-out
- Treatment: vemurafenib 300 nM (about IC25), added 48 h after transfection, for 48 h; comparison arm got DMSO vehicle only
- Measured: 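Cell gain (DAPI nuclei at end minus before drug, mean of two replicates) and medium lactate by absorbance per cell, both as ratio to non-targeting siRNA, also grouped into fold-change classes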
- Scale: cell gain with vemurafenib: higher = more cell gain than with non-targeting siRNA; lactate per cell with vemurafenib: higher = more lactate made per cell
- Rule for the call: 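Enhancement is called by pairing each knock-down's vehicle-arm and drug-arm fold-change classes for viability or glycolysis; which class combinations qualify is not given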
- Calls: active = enhances vemurafenib effect; inactive = no enhancement seen
This is an unselected part of about 18,000 reagents tested. Over the whole deposit, 790 (4.4%) were called active. 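Calls rest on a combination of fold-change classes in drug and vehicle arms, not all shown here.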

What did the screen give for HR [SID152149964]?
cell gain with vemurafenib: 0.95; lactate per cell with vemurafenib: 0.74; Call: inactive

How did the screen score GRN [SID135621740]?
cell gain with vemurafenib: 0.76; lactate per cell with vemurafenib: 0.94; Call: inactive

Which result is listed for FAM163A [SID134322405]?
cell gain with vemurafenib: 0.94; lactate per cell with vemurafenib: 0.53; Call: inactive

For OR2A42 [SID135624799], how do the results read?
cell gain with vemurafenib: 0.25; lactate per cell with vemurafenib: 1.4; Call: inactive

With TUBG2 [SID135621742], how do the results read?
cell gain with vemurafenib: 0.48; lactate per cell with vemurafenib: 0.84; Call: inactive

What did the screen give for TMEM244 [SID152154930]?
cell gain with vemurafenib: 0.76; lactate per cell with vemurafenib: 0.72; Call: inactive

With ASCL1 [SID152151796], how do the results read?
cell gain with vemurafenib: 0.42; lactate per cell with vemurafenib: 0.88; Call: inactive

What is on record for NINJ1 [SID152148847]?
cell gain with vemurafenib: 0.24; lactate per cell with vemurafenib: 1.09; Call: inactive

What is on record for SASH1 [SID134318234]?
cell gain with vemurafenib: 0.28; lactate per cell with vemurafenib: 0.85; Call: inactive

2 of these entries in another layout.
| gene | PubChem SID | cell gain with vemurafenib | lactate per cell with vemurafenib | Call |
| --- | --- | --- | --- | --- |
| FAM163A | SID134322405 | 0.94 | 0.53 | inactive |
| OR2A42 | SID135624799 | 0.25 | 1.4 | inactive |

The list goes on:
For RAX2 [SID135623097], what does the deposit list?
cell gain with vemurafenib: -0.06; lactate per cell with vemurafenib: 2.39; Call: inactive

What did the screen give for PIK3CG [SID56478988]?
cell gain with vemurafenib: 0.33; lactate per cell with vemurafenib: 1.11; Call: inactive

With MTHFD2 [SID152154803], what does the deposit list?
cell gain with vemurafenib: 0.85; lactate per cell with vemurafenib: 0.73; Call: inactive

For SDHB [SID135622194], what was measured?
cell gain with vemurafenib: 1; lactate per cell with vemurafenib: 0.4; Call: inactive

With SPRED3 [SID135625436], how do the results read?
cell gain with vemurafenib: 1.37; lactate per cell with vemurafenib: 0.58; Call: inactive

What did the screen give for CARD19 [SID135623246]?
cell gain with vemurafenib: 0.28; lactate per cell with vemurafenib: 1.27; Call: inactive

With GLIPR1L1 [SID152146888], what was measured?
cell gain with vemurafenib: 0.59; lactate per cell with vemurafenib: 0.72; Call: inactive

How did the screen score REV1 [SID152154746]?
cell gain with vemurafenib: 0.89; lactate per cell with vemurafenib: 0.38; Call: inactive

How did the screen score SORCS3 [SID134317183]?
cell gain with vemurafenib: 0.3; lactate per cell with vemurafenib: 0.58; Call: inactive

How did the screen score CDK2AP1 [SID134316217]?
cell gain with vemurafenib: 0.62; lactate per cell with vemurafenib: 0.8; Call: inactive

With ZNF517 [SID152156681], how do the results read?
cell gain with vemurafenib: 0.55; lactate per cell with vemurafenib: 1.28; Call: inactive

With SULT2B1 [SID135621786], how do the results read?
cell gain with vemurafenib: 0.59; lactate per cell with vemurafenib: 0.6; Call: inactive

Which result is listed for SLCO4C1 [SID152156054]?
cell gain with vemurafenib: 0.3; lactate per cell with vemurafenib: 0.66; Call: inactive

How did the screen score SLC16A8 [SID135621366]?
cell gain with vemurafenib: 0.25; lactate per cell with vemurafenib: 1.79; Call: inactive

For ZBTB5 [SID134324795], what does the deposit list?
cell gain with vemurafenib: 0.47; lactate per cell with vemurafenib: 0.26; Call: inactive

With C1QL2 [SID135623585], what does the deposit list?
cell gain with vemurafenib: 0.64; lactate per cell with vemurafenib: 0.55; Call: inactive

With MARS2 [SID135622966], what was measured?
cell gain with vemurafenib: 0.63; lactate per cell with vemurafenib: 0.57; Call: inactive

For OR7C2 [SID134317068], how do the results read?
cell gain with vemurafenib: 0.27; lactate per cell with vemurafenib: 0.49; Call: inactive
